# About 5,400 (1.8%) of roughly 300,000 compounds were called active. Inconclusive means that the source gave no clear call. Such entries were picked first, then a sample of the others. Calls come from the whole dose curve; tested in HEK293 cells. Potencies beside an inconclusive call are fits to weak or partial responses and may not hold up.
# Assay: qHTS for inhibitors of binding or entry into cells for Marburg Virus
# Details: Marburg virus pseudotyped entry inhibition, cell reporter; activity change, negative = inhibition: at 37.8 µM (top of the series) unless noted
# % is set by controls: 0 for no effect and ±100 for the full control effect; potency is the fitted concentration of half-maximal effect.
SMILES,Potency,"activity change, negative = inhibition"
CCC(NC(=O)c1[nH]c(C)c(C(C)=O)c1C)c1ccc(Br)cc1 (centres undefined),active: 8.91 µM,
COc1cc(-c2noc(-c3ccc(N4CCOCC4)c([N+](=O)[O-])c3)n2)cc(OC)c1OC,,inactive: -1.74% [at 46.1 µM]
COCCN(C(=O)COC(=O)c1ccccc1Nc1ccccc1)c1c(N)n(Cc2ccccc2)c(=O)[nH]c1=O,"inconclusive: 20 µM [inhibitor, partial curve, poor fit]",
CCN(CCCNC(=O)CSc1cc(=O)n(C)c2cc(Cl)ccc12)c1cccc(C)c1,,inactive: -7.94% [at 46.1 µM]
CSc1nnc(Nc2ccccc2C)s1,"inconclusive: 29.1 µM [activator, single point]",
C=CCNc1oc(-c2cccs2)nc1C#N,,inactive: -11.3%
CC12CN3CC(C)(CN(C1)C3c1cc(Br)ccc1O)C2=O (centres undefined),,inactive: -26.7%
CS(=O)(=O)c1ccccc1C(=O)Nc1ccc(S(=O)(=O)N2CCCC2)cc1,,inactive: 16.4% [at 46.1 µM]
COc1cccc(NC(=S)N2c3ccccc3CC2C)c1 (centres undefined),,inactive: 16% [at 46.1 µM]
CC(=O)n1cc(N(C(=O)CCl)c2ccc([N+](=O)[O-])cc2)c2ccccc21,"inconclusive: 11.2 µM [inhibitor, partial curve, poor fit]",
COC(=O)c1ccc(NC(=O)CN2CCN(c3ccccc3)CC2)cc1,"inconclusive: 29.1 µM [activator, single point]",
CC(C)NC(=O)CSc1nc(Cc2ccccc2)nc2ccccc12,"inconclusive: 35.5 µM [activator, single point]",
CCc1ccc(NC(=O)CSc2nc(NS(=O)(=O)c3ccccc3)cc(=O)[nH]2)cc1,active: 3.16 µM,
C/C(=N\NC(=O)c1cccc(Br)c1)c1ccc(Br)cc1,,inactive: 6.41%
O=C(O)c1coc2ccccc12,,inactive: -13.2%
COc1ccc(C2(CCN)CC(C)N(C)CC2C)cc1 (centres undefined),"inconclusive: 1.12 µM [activator, full curve, poor fit]",
COC(=O)c1cc(C)nc(N)c1C#N,"inconclusive: 12.6 µM [activator, partial curve, poor fit]",
c1ccc(Nc2nnc(-c3cccc4ccccc34)o2)cc1,"inconclusive: 2.82 µM [activator, partial curve, poor fit]",
Cc1cc(Cl)cc(Cl)c1OCCCCN(C)C,"inconclusive: 8.2 µM [inhibitor, single point]",
CN=C(Nc1ccc(Cl)cc1)c1cccc(C(F)(F)F)c1,,inactive: 9.61%
O=S(=O)(Nc1ccccc1)c1cccc2nsnc12,,inactive: 15.9% [at 46.1 µM]
CC(OC(=O)c1nc(Cl)ccc1Cl)C(=O)Nc1ccccc1F (centres undefined),,inactive: -20.1% [at 46.1 µM]
Cc1ccccc1NC(=S)N1CCN(C(=O)c2ccco2)CC1,"inconclusive: 6.31 µM [activator, single point]",
COc1ccc(OC)c(C(=O)NC2CCSc3ccccc32)c1 (centres undefined),,inactive: -0.341% [at 46.1 µM]
CCN1CCN(CCCNC(=O)c2ccc3c(c2)NC(=O)c2ccccc2S3)CC1,,inactive: -8.24%

SMILES,Potency,"activity change, negative = inhibition"
CCOc1ccccc1OCCn1nc2ccccc2n1,,inactive: -2.43% [at 46.1 µM]
COC(=O)c1c(NC(=O)CCS(=O)(=O)c2ccccc2)sc2c1CCN(C)C2,,inactive: -3.37%
O=C(NCCCO)c1nc2ccccc2s1,,inactive: 3.25% [at 46.1 µM]
CCOc1ccc(NS(=O)(=O)c2ccc(C(=O)N3CCCCCC3)cc2)cc1,"inconclusive: 7.08 µM [inhibitor, full curve, poor fit]",
CC(C)Cc1c(O)nc(SCC(=O)Nc2ccc3c(c2)CCC3)[nH]c1=O,"inconclusive: 0.0065 µM [inhibitor, full curve, poor fit]",
Cc1nc2ccccc2c(=O)n1/N=C/c1ccccc1O,"inconclusive: 7.94 µM [activator, partial curve, poor fit]",
COc1ccc(C(=O)/C=C/c2cc(OC)c(O)c(OC)c2)c(F)c1,"inconclusive: 18.4 µM [inhibitor, single point]",
CCCCN(Cc1cccs1)S(=O)(=O)c1ccc(-c2ccc(=O)[nH]n2)s1,,inactive: -2.96% [at 46.1 µM]
Cn1c(COc2ccccc2)nnc1SCC(=O)Nc1ccc(S(N)(=O)=O)cc1,,inactive: 11%
Cc1ccc(/C(C#N)=C\c2ccc(N3CCOCC3)o2)cc1,"inconclusive: 1.46 µM [activator, full curve, poor fit]",
N/C(CCS(=O)(=O)c1ccc(Cl)cc1)=N\OC(=O)c1ccccc1C(F)(F)F,"inconclusive: 12.6 µM [inhibitor, partial curve, poor fit]",
CCOC(=O)C1=C(C)NC2=C(C(=O)c3ccccc32)C1c1ccc([N+](=O)[O-])o1 (centres undefined),"inconclusive: 5.62 µM [inhibitor, single point]",
COC(=O)C1CCN(C(=O)/C=C/c2ccccc2)CC1,"inconclusive: 35.5 µM [activator, single point]",
CC1=C(C(=O)Nc2ccc(C)cn2)C(c2cnn(C)c2)C2=C(CCCC2=O)N1 (centres undefined),,inactive: 0.752%
Cc1ccccc1C(=O)c1cccn1CC(=O)NCCN1CCN(c2cccc(C)c2C)CC1,"inconclusive: 18.3 µM [inhibitor, single point]",
O=S(=O)(Nc1ccc(N2CCOCC2)cc1)c1cccs1,,inactive: 14.3%
COc1cccc(CNC(=O)c2nnc(Cc3ccc(Cl)cc3)o2)c1,,inactive: 11.4% [at 46.1 µM]
CN(C)C(=O)CSc1ncccc1-c1nc2ccccc2[nH]1,,inactive: 0.398%
C/C(=N\NC(=S)NCc1ccccc1)c1ccc(Cl)s1,"inconclusive: 35.5 µM [inhibitor, single point]",
NC1=NC(=Nc2cccc(S(=O)(=O)N3CCOCC3)c2)c2ccccc21,"inconclusive: 11.2 µM [inhibitor, partial curve, poor fit]",
COc1ccc(CNC(=O)CNC(c2ccccc2)c2ccccc2)cc1OC,"inconclusive: 3.16 µM [inhibitor, partial curve, poor fit]",
CCOC(=O)c1cccc2c(=O)c(C(=O)c3ccc(Cl)cc3)c(C(=O)OC)[nH]c12,"inconclusive: 35.5 µM [activator, single point]",
C=CCOC(=O)C1=C(C)NC(C)=C(C(=O)OCC=C)C1/C=C/c1ccccc1,"inconclusive: 0.184 µM [inhibitor, full curve, poor fit]",
O=C1c2ccccc2C(=O)N1c1cc([N+](=O)[O-])ccn1,,inconclusive: 4.38% [activator]
